Key:
[1] = 20° gloss retention of two-component acrylic urethane clearcoat, Xenon-Arc Weather-Ometer
Description: The hindered amine test stabilizers are incorporated into a two-component acrylic urethane coating as described in Example 99. The system is catalyzed with 0.02% by weight of dibutyltin dilaurate based on the total resin solids. The stabilizers are added at the appropriate level to the acrylic polyol portion of the two-component coating which is then combined with the isocyanate component immediately prior to application.
Steel panels 3″×4″ primed with an electrocoat primer are then coated with a light blue metallic basecoat, then with the stabilized clearco at. The basecoat is spray applied to a thickness of 1.0 mil (25 microns) dry film thickness and the stabilized clearcoat is then applied to a thickness of 2.0 mils (50 microns) dry film thickness. The coating is air-dried and aged for two weeks. The panels are then exposed in a Xenon-Arc Weather-Ometer under the following conditions:
(§1) Cam 180 cycle: 40 minutes light only; 20 minutes light and front spray; 60 minutes light only; 60 minutes dark and rear spray condensate.
Lamp filters are: quartz inner/borosilicate S outer.
Irradiance: 0.45 watts per square meter.
20° Gloss is measured before exposure and at 500 hour intervals during exposure. Higher gloss retention is desirable.

[2] = Film loss of acrylic urethane clearcoat on silicon disks, Xenon-Arc Weather-Ometer
Description: A clearcoat as prepared in Example 108 is applied by spin-coating to 1″ silicon disks to a dry film thickness of approximately 25 microns. The initial optical film thickness of each disk is measured using a Zeiss interferometer. The disks are then exposed in a Xenon-Arc Weather-Ometer under the following conditions:
as §1
Lamp filters are: quartz inner/quartz outer.
Irradiance: 0.55 watts per square meter.
Optical film thickness is remeasured every 250 hours and film loss is determined for each formulation. A lower value for film loss is desirable.

[3] = Light stability of yellow chromogenic photographic layers (Atlas WeatherOmeter)
Description: Chromogenic photographic layers are prepared by hand-coating a gelatine emulsion containing silver bromide, yellow coupler and an additive on a polyethylene-coated paper.
The layers are dried for 7 days in a ventilated cabinet.
The dried samples are exposed to white light through a stepwedge of 0.3 logE exposure steps. They are developed with the P94 process for negative colour paper from Agfa-Gevaert, following the manufacturers' recommendations.
After exposure and processing, the remission density of the yellow dye is measured in the blue channel. The samples are then exposed in an Atlas WeatherOmeter behind a separate UV filter so as to receive 60 kJ/cm^2 light energy. The UV filter consists of an emulsion coated onto a polyester transparent support, such that the layer contains 1 g/m^2 Tinuvin B976®. The temperature is 43° C. and the relative humidity 50%. The density loss starting from a blue-density of 1 is determined. Low ΔD number are desired.

[4] = Flame retardancy of polypropylene fiber socks, NFPA701-1996 vertical burn; conditions: additive 1.0% in polypropylene fiber sock
Description: Fiber grade polypropylene, is dry blended with the test additives and then melt is compounded at 234° C. (450° F.) into pellets. All formulations additionally contain melt processing stabilizer system. The pelletized fully formulated resin is then spun at 246° C. (475° F.) into fiber using a Hills laboratory model fiber extruder. The spun tow of 41 filaments is stretch at a ratio of 1:3.2 to give a final denier of 615/41.
The fibers are then knitted into socks and on a Lawson-Hemphill Analysis Knitter. Ten replicates of each sample are tested under NFPA701-1996 Vertical burn procedure. The time in seconds for the knitted sock to extinguish after the insult flame is removed is reported as “After Flame”. […] The burning time of the drips from the material and the weight loss are also recorded.

## CCCCN(c1nc(NCCO)nc(N(CCCC)C2CC(C)(C)N(OC3CCCCC3)C(C)(C)C2)n1)C1CC(C)(C)N(OC2CCCCC2)C(C)(C)C1 [D, 2,4-bis[N-(1-cyclohexyloxy-2,2,6,6-tetramethylpiperidin-4-yl)-N-butylamino]-6-(2-hydroxyethylamino)-s-triazine, reference compound]
[1]; 4500 hours
  Percent Retention of 20° Gloss: 34%
[1]; 8500 hours
  Percent Retention of 20° Gloss: 22%
[2]; 3972 hours
  Film Loss: 6.3 microns
[2]; 5561 hours
  Film Loss: 14.3 microns

## CC(C)(O)CON1C(C)(C)CC(CCCCNc2nc(NCCO)nc(NCCCCC3CC(C)(C)N(OCC(C)(C)O)C(C)(C)C3)n2)CC1(C)C [Example 12, 2,4-Bis {N-[1-(2-hydroxy-2-methylpropoxy)-2,2,6,6-tetramethylpiperidin-4-yl]butylamino}-6-(2-hydroxyethyl)amino-s-triazine]
[1]; 4500 hours
  Percent Retention of 20° Gloss: 41%
[1]; 8500 hours
  Percent Retention of 20° Gloss: 23%
[2]; 3972 hours
  Film Loss: 5.9 microns
[2]; 5561 hours
  Film Loss: 12.4 microns

## CCCCCCCCCCCCCCCCCC(=O)OC1CC(C)(C)N(OCC(C)(C)O)C(C)(C)C1 [Example 73, 1-(2-Hydroxy-2-methylpropoxy)-4-octadecanoyloxy-2,2,6,6-tetramethylpiperidine]
[3]; Coupler CoupY1
  -DD(60 kJ/cm^2, from OD = 1): 59
[3]; Coupler CoupY3
  -DD(60 kJ/cm^2, from OD = 1): 22
[4]
  After flame: 0.5 s
  Drip Burn: 12.5 s
  Weight loss: 36%
